Source: patent US20230103774A1, “USE OF KAURANE COMPOUNDS IN PREPARATION OF DRUG FOR PREVENTION AND TREATMENT OF SEPSIS AND MULTIPLE ORGAN DAMAGE” (KEY-PHARMA BIOMEDICAL INC., priority 2020, published 2023)
For at least one compound, name, drawing or mass did not settle the structure.

Tests used:
Type in all cases: in vivo
[1] = tested on: primary peritoneal macrophages; experiment: flow cytometry of M1/M2 primary peritoneal macrophages of LPS induced septic mice; conditions: 6 hours after 20 mg/kg LPS i.p., versus LPS group
Description: This example illustrates the effect of compound A on macrophage polarization. • (1) Grouping of experimental animals: 6-8 week old Balb/c male mice were randomly divided into 4 groups after one week of adaptive feeding, 10 mice in each group, namely the Control group, the LPS group, the compound A group and the dexamethasone group. The LPS group, compound A group and dexamethasone group were given intraperitoneally injection of a 20 mg/kg of LPS. […]

[2] = tested on: lactate dehydrogenase (LDH) and creatine kinase (CK) in plasma; experiment: plasma myocardial injury indexes LDH and CK; conditions: LPS-induced septic mice, versus LPS group, p<0.01
Description: Serum lactate dehydrogenase (LDH) and creatine kinase (CK) were determined according to the istructions provided by Nanjing Jiancheng Biotechnology Co., Ltd.

[3] = tested on: LPS-induced septic mice; experiment: cardiac function of LPS-induced septic mice by echocardiography (Vevo2100); conditions: 6 h after i.p. LPS, versus LPS group
From the text: Six hours after intraperitoneal injection of LPS, mice in each group were weighed and anesthetized, and the cardiac function of the mice was detected by Vevo2100 imaging system. The mice were put into the recumbent position and fixed on a constant temperature heating plate under heart rate of 400-500 times per minute. The limbs were fixed on the four metal poles with tape. The ultrasound probe was placed in the left thoracic region of the mouse, and the short axis of the parasternal left ventricle was obtained by 2D ultrasound. The left ventricular motion was recorded at the papillary muscle level by M-ultrasound, and heart rate (HR), left ventricular systolic diameter (LVID: FS), left ventricular diastolic diameter (LVID: d), left ventricular systolic diameter (LVID: FS), left ventricular diastolic diameter (LVID: Fd), and left ventricular diastolic […] thickness (LVPWF: FdF) were measured. Using Vevo2100 small animal ultrasound system software to process and analyze the acquired images. Determination of mouse plasma myocardial injury indexes (LDH and CK)
Ejection Fractions (EF), refers to the percentage of cardiac stroke volume in ventricular end-diastolic volume, which is an indicator of myocardial contractility. […]

[4] = tested on: LPS-induced septic mice; experiment: liver function of LPS-induced septic mice (plasma ALT, AST, SOD, histopathology)
From the text: The prepared plasma of each group was taken to determine the levels of alanine aminotransferase (ALT), aspartate aminotransferase (AST) and superoxide dismutase (SOD) in plasma by a microplate reader according to the manufacture's instruction.

[5] = tested on: white blood cells, neutrophils and monocytes; experiment: white blood cells, neutrophils and monocytes in LPS induced septic mice; conditions: versus LPS group
[6] = tested on: LPS-induced septic mice; experiment: renal function of LPS-induced septic mice (plasma BUN, Crea, histopathology)
From the text: The prepared plasma of each group was taken to determine the levels of urea nitrogen (BUN) and creatinine (Crea) in plasma by a microplate reader following the manufacture's instruction.

## C[C@@H]1C[C@H]2[C@@H]3CCC4=CC(=O)C=C[C@]4(C)[C@@]3(F)[C@@H](O)C[C@]2(C)[C@@]1(O)C(=O)CO [dexamethasone, reference compound]
[1]
  M1 peritoneal macrophages (F4/80+CD11c+ CD206−): significantly reduced
  M2 peritoneal macrophages (F4/80+CD11c− CD206+): significantly reduced
[2]
  CK level in plasma: significantly decreased
  LDH level in plasma: downward trend
[3]
  ejection fraction (EF): not significant
  fractional shortening (FS): not significant
[4]
  alanine aminotransferase (ALT) in plasma: significantly decreased
  aspartate aminotransferase (AST) in plasma: significantly decreased
  superoxide dismutase (SOD) in plasma: significantly decreased
[5]
  level of white blood cells, neutrophils and monocytes: increased
[6]
  creatinine (Crea) in plasma: did not change significantly
  urea nitrogen (BUN) in plasma: significantly decreased
